Reference: PubChem BioAssay AID602196 (INSERM, 2012)

Test: 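Modifiers of cisplatin sensitivity in A549 cells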
Cells: human A549 lung cancer cells
Reagent: siRNA pair against human genes
Time to read-out: 48 h transfection before cisplatin; time from cisplatin to read-out not stated
Conditions: cisplatin at a dose killing half of control-siRNA cells; exact dose and duration not given
Detection: 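Cisplatin cell death as a shift from the 50% death seen with control siRNA; siRNAs toxic or growth-blocking alone scored 0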
Scale: two-siRNA summed score (-2 to +2): higher = both siRNAs protect from cisplatin killing; -2 means both sensitise
Rule for the call: 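siRNAs harmful alone (LDH or WST-1) get 0; others get +1 for less and -1 for more cisplatin killing; genes are active when the two siRNAs give the same sign, summing to ±2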
Meaning of the calls: active = both siRNAs shift cisplatin killing the same way; inactive = no consistent shift, or siRNA harmful alone
The whole screen tested about 23,000 reagents; shown is a random part of them. 455 of them (2%) were called active. 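Active includes both protection and sensitisation; some change values fall well beyond the stated -50 to +50 range.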 Entries without a mark were called inactive. Further read-outs or replicates are left out here. Not given: the amount of reagent.

no.	gene	two-siRNA summed score (-2 to +2)
1	CRTAP (GeneID 10491)	0
2	C10orf95 (GeneID 79946)	0
3	VIP (GeneID 7432)	0
4	GMEB2 (GeneID 26205)	0
5	LOC387950	0
6	SLAMF1 (GeneID 6504)	0
7	UNQ5810	0
8	HMCES (GeneID 56941)	0
9	SPOCD1 (GeneID 90853)	0
10	CSGALNACT2 (GeneID 55454)	0
11	SLC29A1 (GeneID 2030)	0
12	LIN7A (GeneID 8825)	0
13	RNF38 (GeneID 152006)	0
14	CHRNE (GeneID 1145)	0
15	UBE2Q2P1 (GeneID 388165)	0

Next part; the last 2 above are carried over.
no.	gene	two-siRNA summed score (-2 to +2)
14	CHRNE (GeneID 1145)	0
15	UBE2Q2P1 (GeneID 388165)	0
16	EXOC3L2 (GeneID 90332)	-1
17	IFNLR1 (GeneID 163702)	0
18	ZNF341 (GeneID 84905)	0
19	SWT1 (GeneID 54823)	0
20	NCEH1 (GeneID 57552)	0
21	CCDC170 (GeneID 80129)	0
22	GNA15 (GeneID 2769)	0
23	LOC401921	1
